From PubChem BioAssay AID504648 (National Center for Advancing Translational Sciences (NCATS), 2011)
Screen size: about 390,000 compounds; about 610 (0.16%) were called active. Inconclusive means that the source gave no clear call. Such entries were picked first, then a sample of the others. Calls follow the shape of the dose curve; as a rule, active = well fitted inhibition curve with a large enough effect; inconclusive = small, poorly fitted or top-dose-only effect, or effect the other way, or another doubt; inactive = no such curve, though single readings can be large or run the other way. Potencies of inconclusive entries are doubtful fits and often do not repeat.
Potency is read from the fitted curve at half-maximal effect.

Experiment: Nrf2 qHTS screen for inhibitors: counterscreen for cytotoxicity
Conditions: A549 ARE-Fluc cells, CellTiter-Fluor viability, 18-24 h; series mostly up to 46 µM
How it was run: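 A549 ARE-Fluc cells in 5% FBS OPTI-MEM, 5000 cells/well, rested 2 h then exposed to compounds in concentration-response for 18-24 h at 37 °C. Viability by CellTiter-Fluor fluorescence (Ex 405/Em 525) after 30 min; luciferase luminescence (BugLite, 15 min, RT) read afterwards.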
With `CCOc1ccc2c(c1)-c1c(ssc1=S)C(C)(C)N2` the Potency was inconclusive: 11.6 µM [falling, partial curve].
In the case of `Cc1ccc(-n2c(C)nc3c(cnn3-c3ccc(F)cc3)c2=O)cc1`, the Potency is reported as “inactive”.
With `Cc1ccccc1NC(=O)COC(=O)c1cccc(S(=O)(=O)N2CCCCC2)c1` the Potency was “inactive”.
With `Oc1ccc(N=Nc2n[nH]c(-c3ccc(Cl)cc3)n2)cc1` the Potency was inconclusive: 18.4 µM [falling, partial curve, poor fit].
For `COc1ccc(C(=O)NN=C(Cc2ccccc2)Cc2ccccc2)cc1OC`, the Potency was inconclusive: 23.1 µM [activator, partial curve, poor fit].
With `Cc1ccc(Cn2c(=O)sc3ccccc3c2=O)cc1` the Potency was inconclusive: 20.6 µM [activator, partial curve, poor fit].
For `Cc1ccc(/C=C/C(=O)c2ccccc(=O)c2O)cc1C`, the Potency was inconclusive: 20.6 µM [falling, partial curve, poor fit].
With `COc1ccc(C(C(=O)NC2CCCCC2)N(CC2CCCO2)C(=O)CCCC(=O)Nc2ccccn2)cc1` (configuration not stated) the Potency was inconclusive: 11.6 µM [falling, partial curve, poor fit].
In the case of `COC(=O)c1cc(OC)c(OC)cc1NC(=O)c1ccco1`, the Potency is reported as inconclusive: 23.1 µM [falling, partial curve, poor fit].
With `CCN(CC)CCCNC(=O)c1cn(CC)c2ccc(S(=O)(=O)N3CCC(C)CC3)cc2c1=O` the Potency was inconclusive: 29.1 µM [falling, single point].
In the case of `COc1ccc(Nc2nc3c(S(=O)(=O)c4ccccc4)nnn3c3ccc(Cl)cc23)cc1`, the Potency is reported as inconclusive: 5.8 µM [falling, partial curve].
In the case of `Cc1c(Cc2ccccc2)c(=O)oc2c(CN(C)C)c(O)c(Cl)cc12`, the Potency is reported as inconclusive: 18.4 µM [activator, single point].
In the case of `O=S(=O)(c1ccc(NC(=S)NN=Cc2ccccc2O)cc1)N1CCCCC1`, the Potency is reported as inconclusive: 32.6 µM [falling, partial curve, poor fit].
In the case of `CCC(C)[C@H]1COCCS(=O)(=O)N1Cc1ccc(Cl)cc1Cl` (some centres not stated), the Potency is reported as “inactive”.
For `O=C1N[C@@H](Cc2ccccc2)C(=O)N2[C@@H]3N(S(=O)(=O)c4ccc(F)cc4)c4ccccc4[C@]3(Br)C[C@@H]12`, the Potency was inconclusive: 25.9 µM [falling, partial curve, poor fit].
In the case of `CCOC(=O)C(C)N1C(=O)S/C(=C\c2ccc(-c3ccccc3C(=O)O)o2)C1=O` (configuration not stated), the Potency is reported as inconclusive: 29.1 µM [falling, single point].
With `CCOc1ccc(S(=O)(=O)Nc2cccc(C(=O)N(C)Cc3cccc(OC)c3OC)c2)cc1` the Potency was “inactive”.
